Results deposited as PubChem BioAssay AID1671195 (Yale University, 2021)
Shown is a random part of about 22,000 deposited reagents. Of all reagents, about 1,510 (6.9%) got an active call. 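Active includes knockdowns raising or lowering LDL uptake; positive z-scores mean more uptake, negative mean less.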 The numbers tell different reagents against one gene apart.

Screen: 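Knockdowns that increase or decrease uptake of fluorescent LDL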 (primary screen)
Cells: human Huh7 hepatoma cells
Reagents: siRNA pool against human genes, 18 nM
Duration: about 2 to 2.5 days of knockdown, then 8 h LDL uptake
Challenge: DiI-labelled LDL at 30 µg/ml for 8 h, in lipoprotein-deficient serum medium
Read-out: 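Fluorescent LDL signal imaged in cells, scaled to the plate median, robust z-score for each replicate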
Scale: robust z-score: higher = more LDL uptake after knockdown
Rule for the call: 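a gene counts as active if at least two replicate z-scores exceed ±2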

Against SLC4A11 the deposit lists robust z-score, replicate 1 = -0.506; robust z-score, replicate 2 = -0.579; robust z-score, replicate 3 = -0.659; inactive.
Silencing of KBTBD11 resulted in: robust z-score, replicate 1 = 2.21; robust z-score, replicate 2 = 3.54; robust z-score, replicate 3 = 2.66; active.
ARTN scored robust z-score, replicate 1 = 2.41; robust z-score, replicate 2 = -1.13; robust z-score, replicate 3 = -0.0975; inactive.
After knock-down of ID1, the record shows robust z-score, replicate 1 = -0.393; robust z-score, replicate 2 = 0.138; robust z-score, replicate 3 = -0.348; inactive.
With knock-down of HAND2, the record shows robust z-score, replicate 1 = -0.959; robust z-score, replicate 2 = -1.63; robust z-score, replicate 3 = -1.18; inactive.
With knock-down of PARP10, the screen gave robust z-score, replicate 1 = -0.38; robust z-score, replicate 2 = -0.0103; robust z-score, replicate 3 = -0.0528; inactive.
ZNF436 showed robust z-score, replicate 1 = 0.25; robust z-score, replicate 2 = 0.0658; robust z-score, replicate 3 = 0.768; inactive.
Depletion of LOC338902 (retired record) resulted in: robust z-score, replicate 1 = 0.302; robust z-score, replicate 2 = 0.192; robust z-score, replicate 3 = 0.057; inactive.
Depletion of TTLL1 came out at: robust z-score, replicate 1 = -1.04; robust z-score, replicate 2 = -1.58; robust z-score, replicate 3 = -1.62; inactive.
For DHX15, the values are robust z-score, replicate 1 = -0.19; robust z-score, replicate 2 = -1.19; robust z-score, replicate 3 = 0.266; inactive.
Against LOC440314 (retired record) the deposit lists robust z-score, replicate 1 = 0.638; robust z-score, replicate 2 = 0.137; robust z-score, replicate 3 = 0.71; inactive.
Silencing of HSPA9 came out at: robust z-score, replicate 1 = 0.289; robust z-score, replicate 2 = 0.304; robust z-score, replicate 3 = 0.71; inactive.
For SEL1L the deposit lists robust z-score, replicate 1 = -0.0802; robust z-score, replicate 2 = 0.462; robust z-score, replicate 3 = -1.21; inactive.

Called active, of those listed so far:
KBTBD11 — robust z-score, replicate 1 = 2.21; robust z-score, replicate 2 = 3.54; robust z-score, replicate 3 = 2.66; Call = active

The listing continues.
Depletion of VENTX resulted in: robust z-score, replicate 1 = 2.62; robust z-score, replicate 2 = 2.02; robust z-score, replicate 3 = 2.22; active.
After knock-down of UTP3 the results were robust z-score, replicate 1 = -1.67; robust z-score, replicate 2 = -1.28; robust z-score, replicate 3 = -0.969; inactive.
CD44 scored robust z-score, replicate 1 = 1.6; robust z-score, replicate 2 = 1; robust z-score, replicate 3 = 0.749; inactive.
For MUC12 #1, the entry reads robust z-score, replicate 1 = 0.582; robust z-score, replicate 2 = 0.876; robust z-score, replicate 3 = 0.271; inactive.
Knock-down of MUC12 #2 gave: robust z-score, replicate 1 = 0.563; robust z-score, replicate 2 = -0.019; robust z-score, replicate 3 = 0.204; inactive.
Knock-down of ZNRF2P1 resulted in: robust z-score, replicate 1 = 2.12; robust z-score, replicate 2 = 2.88; robust z-score, replicate 3 = 2.78; active.
Knock-down of HOPX resulted in: robust z-score, replicate 1 = -1.81; robust z-score, replicate 2 = -1.25; robust z-score, replicate 3 = -0.39; inactive.
Against DUSP18, the entry reads robust z-score, replicate 1 = 0.441; robust z-score, replicate 2 = 0.167; robust z-score, replicate 3 = 0.114; inactive.
After knock-down of CDHR1 the results were robust z-score, replicate 1 = 1.27; robust z-score, replicate 2 = 1.27; robust z-score, replicate 3 = 1.1; inactive.
With knock-down of LINC00597, the screen gave robust z-score, replicate 1 = -0.782; robust z-score, replicate 2 = -0.42; robust z-score, replicate 3 = -0.525; inactive.
With knock-down of LOC392549 (retired record), the screen gave robust z-score, replicate 1 = -1.04; robust z-score, replicate 2 = -0.206; robust z-score, replicate 3 = -0.929; inactive.
After knock-down of CYP1A1, the record shows robust z-score, replicate 1 = 0.329; robust z-score, replicate 2 = 0.59; robust z-score, replicate 3 = 0.513; inactive.
Depletion of DERL3 came out at: robust z-score, replicate 1 = 1.19; robust z-score, replicate 2 = 1.04; robust z-score, replicate 3 = 2.13; inactive.
For DNAJB12 the deposit lists robust z-score, replicate 1 = 0.73; robust z-score, replicate 2 = 1.19; robust z-score, replicate 3 = 1.1; inactive.
With knock-down of TNC the results were robust z-score, replicate 1 = -2; robust z-score, replicate 2 = -1.75; robust z-score, replicate 3 = -2.58; active.
Silencing of DCAF12 gave: robust z-score, replicate 1 = 0.264; robust z-score, replicate 2 = 0.0886; robust z-score, replicate 3 = 0.262; inactive.
After knock-down of DRC5 the results were robust z-score, replicate 1 = -0.0412; robust z-score, replicate 2 = -0.985; robust z-score, replicate 3 = -0.744; inactive.
